According to the supplement of paper PMC8728848:
The other results are listed elsewhere or left out.

Legend:
Test in all cases: glycan array binding signal (z-score within array); higher = stronger binding
Conditions in all cases: glycan notation: IUPAC condensed, linker removed
Fuc(a1-2)Gal = biological target: Fuc(a1-2)Gal
Outline: (§1)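 Arrays were curated from the Consortium for Functional Glycomics database, 3228 in total, and kept only where the protein sequence was available. Binding is expressed as a within-array Z-score. This score was averaged across arrays of the same protein sequence at different concentrations or buffers and across linkers, and negative values can be read as non-binding.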

Fuc(a1-2)Gal(b1-3)GalNAc = biological target: Fuc(a1-2)Gal(b1-3)GalNAc
Outline: as §1

[1] = biological target: Fuc(a1-2)Gal(b1-3)GalNAc(a1-3)[Fuc(a1-2)]Gal(b1-4)Glc
Outline: as §1

[2] = biological target: Fuc(a1-2)Gal(b1-3)GalNAc(a1-3)[Fuc(a1-2)]Gal(b1-4)GlcNAc
Outline: as §1

[3] = biological target: Fuc(a1-2)Gal(b1-3)GalNAc(b1-3)Gal
Outline: as §1

[4] = biological target: Fuc(a1-2)Gal(b1-3)GalNAc(b1-3)Gal(a1-4)Gal(b1-4)Glc
Outline: as §1

[5] = biological target: Fuc(a1-2)Gal(b1-3)GalNAc(b1-4)[Neu5Ac(a2-3)]Gal(b1-4)Glc
Outline: as §1

Fuc(a1-2)Gal(b1-3)GlcNAc = biological target: Fuc(a1-2)Gal(b1-3)GlcNAc
Outline: as §1

[6] = biological target: Fuc(a1-2)Gal(b1-3)GlcNAc(b1-2)Man(a1-3)[Fuc(a1-2)Gal(b1-3)GlcNAc(b1-2)Man(a1-6)]Man(b1-4)GlcNAc(b1-4)GlcNAc
Outline: as §1

[7] = biological target: Fuc(a1-2)Gal(b1-3)GlcNAc(b1-2)Man(a1-3)[Fuc(a1-2)Gal(b1-3)GlcNAc(b1-2)Man(a1-6)]Man(b1-4)GlcNAc(b1-4)[Fuc(a1-6)]GlcNAc
Outline: as §1

[8] = biological target: Fuc(a1-2)Gal(b1-3)GlcNAc(b1-3)Gal(b1-4)Glc
Outline: as §1

[9] = biological target: Fuc(a1-2)Gal(b1-3)GlcNAc(b1-3)GalNAc
Outline: as §1

[10] = biological target: Fuc(a1-2)Gal(b1-3)GlcNAc(b1-3)[Fuc(a1-2)Gal(b1-3)GlcNAc(b1-6)]GalNAc
Outline: as §1

[11] = biological target: Fuc(a1-2)Gal(b1-3)GlcNAc(b1-3)[Gal(b1-4)GlcNAc(b1-6)]Gal(b1-4)Glc
Outline: as §1

[12] = biological target: Fuc(a1-2)Gal(b1-3)GlcNAc(b1-3)[Neu5Ac(a2-6)Gal(b1-4)GlcNAc(b1-6)]Gal(b1-4)Glc
Outline: as §1

[13] = biological target: Fuc(a1-2)Gal(b1-3)GlcNAc6S
Outline: as §1

[14] = biological target: Fuc(a1-2)Gal(b1-3)[Fuc(a1-4)]GlcNAc
Outline: as §1

[15] = biological target: Fuc(a1-2)Gal(b1-3)[Fuc(a1-4)]GlcNAc(b1-2)Man(a1-3)[Fuc(a1-2)Gal(b1-3)[Fuc(a1-4)]GlcNAc(b1-2)Man(a1-3)]Man(b1-4)GlcNAc(b1-4)GlcNAc
Outline: as §1

[16] = biological target: Fuc(a1-2)Gal(b1-3)[Fuc(a1-4)]GlcNAc(b1-2)Man(a1-3)[Fuc(a1-2)Gal(b1-3)[Fuc(a1-4)]GlcNAc(b1-2)Man(a1-6)]Man(b1-4)GlcNAc(b1-4)[Fuc(a1-6)]GlcNAc(b1-4)[Fuc(a1-6)]GlcNAc
Outline: as §1

[17] = biological target: Fuc(a1-2)Gal(b1-3)[Fuc(a1-4)]GlcNAc(b1-3)[Fuc(a1-3)[Gal(b1-4)]GlcNAc(b1-6)]Gal(b1-4)Glc
Outline: as §1

[18] = biological target: Fuc(a1-2)Gal(b1-3)[Fuc(a1-4)]GlcNAc(b1-3)[Gal(b1-4)GlcNAc(b1-6)]Gal(b1-4)Glc
Outline: as §1

Fuc(a1-2)Gal(b1-4)Glc = biological target: Fuc(a1-2)Gal(b1-4)Glc
Outline: as §1

Fuc(a1-2)Gal(b1-4)Glc6S = biological target: Fuc(a1-2)Gal(b1-4)Glc6S
Outline: as §1

Fuc(a1-2)Gal(b1-4)GlcNAc = biological target: Fuc(a1-2)Gal(b1-4)GlcNAc
Outline: as §1

[19] = biological target: Fuc(a1-2)Gal(b1-4)GlcNAc(b1-2)Man
Outline: as §1

[20] = biological target: Fuc(a1-2)Gal(b1-4)GlcNAc(b1-2)Man(a1-3)[Fuc(a1-2)Gal(b1-4)GlcNAc(b1-2)Man(a1-6)]Man(b1-4)GlcNAc(b1-4)GlcNAc
Outline: as §1

[21] = biological target: Fuc(a1-2)Gal(b1-4)GlcNAc(b1-2)Man(a1-3)[Fuc(a1-2)Gal(b1-4)GlcNAc(b1-2)Man(a1-6)]Man(b1-4)GlcNAc(b1-4)[Fuc(a1-6)]GlcNAc
Outline: as §1

[22] = biological target: Fuc(a1-2)Gal(b1-4)GlcNAc(b1-2)[Fuc(a1-2)Gal(b1-4)GlcNAc(b1-4)]Man(a1-3)[Fuc(a1-2)Gal(b1-4)GlcNAc(b1-2)Man(a1-6)]Man(b1-4)GlcNAc(b1-4)GlcNAc
Outline: as §1

[23] = biological target: Fuc(a1-2)Gal(b1-4)GlcNAc(b1-3)Gal(b1-4)GlcNAc
Outline: as §1

[24] = biological target: Fuc(a1-2)Gal(b1-4)GlcNAc(b1-3)Gal(b1-4)GlcNAc(b1-2)Man(a1-3)[Fuc(a1-2)Gal(b1-4)GlcNAc(b1-3)Gal(b1-4)GlcNAc(b1-2)Man(a1-6)]Man(b1-4)GlcNAc(b1-4)GlcNAc
Outline: as §1

B1: Mincle (Bos taurus) (protein)
chain: MNSSTSPASQTERRCFSFQLFSWAIAGTSILLLSACFITRCVVTYSIFQLCDEKKFQPPGDSMELSCYNDGSGSVKNCCPLKWFHFQSSCYLFSPDTMSWRASLKNCSSMGAHLVVINTQEEQEFLYYTKPRKKEFYIGLTDQVTEGQWQWVDGTPFTKSLSFWDAGEPNNLVIVEDCATIRDSSNPRQNWNDVPCFFNMFRVCEMPERKI
Question: How did the “glycan array binding signal (z-score)” value (Fuc(a1-2)Gal) turn out when B1 was run?
Answer: Its value is 3.49.

Question: What about the “glycan array binding signal (z-score)” value (Fuc(a1-2)Gal(b1-3)GalNAc) of the same binder?
Answer: The value was -0.583.

Question: What about the “glycan array binding signal (z-score)” value [1] of the same binder?
Answer: Its value is -0.129.

Question: And the “glycan array binding signal (z-score)” value [2]?
Answer: The value was -0.319.

Question: What about the “glycan array binding signal (z-score)” value [3] of the same binder?
Answer: Its value is -0.813.

Question: What about the “glycan array binding signal (z-score)” value [4] of the same binder?
Answer: Its value is -0.285.

Question: And the “glycan array binding signal (z-score)” value [5]?
Answer: Its value is 0.045.

Question: And the “glycan array binding signal (z-score)” value (Fuc(a1-2)Gal(b1-3)GlcNAc)?
Answer: The value was -0.435.

Question: And the “glycan array binding signal (z-score)” value [6]?
Answer: The value was 1.77.

Question: What about the “glycan array binding signal (z-score)” value [7] of the same binder?
Answer: The value was -0.188.

Question: And the “glycan array binding signal (z-score)” value [8]?
Answer: Its value is -0.17.

Question: What about the “glycan array binding signal (z-score)” value [9] of the same binder?
Answer: Its value is -0.598.

Question: And the “glycan array binding signal (z-score)” value [10]?
Answer: The value was -1.06.

Question: And the “glycan array binding signal (z-score)” value [11]?
Answer: The value was 0.118.

Question: And the “glycan array binding signal (z-score)” value [12]?
Answer: The value was -0.269.

Question: What about the “glycan array binding signal (z-score)” value [13] of the same binder?
Answer: The value was -0.632.

Question: What about the “glycan array binding signal (z-score)” value [14] of the same binder?
Answer: Its value is -0.053.

Question: What about the “glycan array binding signal (z-score)” value [15] of the same binder?
Answer: The value was 0.159.

Question: What about the “glycan array binding signal (z-score)” value [16] of the same binder?
Answer: Its value is -0.356.

Question: And the “glycan array binding signal (z-score)” value [17]?
Answer: Its value is 0.245.

Question: And the “glycan array binding signal (z-score)” value [18]?
Answer: The value was -0.372.

Question: What about the “glycan array binding signal (z-score)” value (Fuc(a1-2)Gal(b1-4)Glc) of the same binder?
Answer: The value was -0.027.

Question: What about the “glycan array binding signal (z-score)” value (Fuc(a1-2)Gal(b1-4)Glc6S) of the same binder?
Answer: Its value is 0.141.

Question: And the “glycan array binding signal (z-score)” value (Fuc(a1-2)Gal(b1-4)GlcNAc)?
Answer: Its value is -0.301.

Question: What about the “glycan array binding signal (z-score)” value [19] of the same binder?
Answer: Its value is 0.135.

Question: And the “glycan array binding signal (z-score)” value [20]?
Answer: The value was 1.4.

Question: And the “glycan array binding signal (z-score)” value [21]?
Answer: Its value is 0.207.

Question: And the “glycan array binding signal (z-score)” value [22]?
Answer: Its value is -0.188.

Question: And the “glycan array binding signal (z-score)” value [23]?
Answer: Its value is -0.721.

Question: And the “glycan array binding signal (z-score)” value [24]?
Answer: Its value is -0.406.
